In PMC3934973:

Biological target: AtSar1 (Arabidopsis thaliana (endogenous in Col-0 seedlings))
Test: co-IP; Triton X-100 extract of 15-day-old A. thaliana Col-0 seedlings (20 mM HEPES pH 6.8, 125 mM potassium acetate, 1 mM EDTA, 1% Triton X-100); immunoprecipitated overnight at 4 °C with anti-AtSar1 serum and protein A/protein G/γ-Bind-Sepharose beads; Western blot with anti-AtSar1, anti-AtSec12, anti-AtSec13 and anti-AtSec23 sera

binding: binds
B1: AtSec12 (protein, UniProt Q39221 1-393)
chain: MANQSTETNQPSNMQTYGVPIYAADWIPEVDVRSKIIMDPEKSEDDDESSSSSSSSRSCIVLSGGGGEGRSGISNVILICRVDLNTNSLSEQPLGRLVVGSDLPYRMAVHPREGGLICALPNSCKLFHWEDIMSREDNQAGESEEVIKELRDVGQQLALAFNPEGSVLAAGAEDGTLRVFKWPSMNTLLNESQAHSSVKCLTFSESGQFLVSLGGPVCRVWDVNASAAVASLSKEKDEMFASCRFSVDSAGNEVLYIAANTERGGSIITCDTKLWKRKWSKPIKKNSISAFNVSADGKLLAIGTLEGDVLILESTRMQTIQVVKKAHLGLVTALTFSPDSRGLVSVSFDSRARLTMIEQKGDKPGVRWWLLVLLIVLLYVVAYYYMKAKGIIP

Results are given in words; binding and its absence hold for the method and conditions named. Binding seen in cells or lysates may run through a third protein. A result given as binding can be weak or reduced; the word gives no strength.
